No constants are given. Whether binding was seen depends on the method and setting. For some assays here: In cells and extracts the contact can be indirect. Some binding calls cover weakened binding; strength is not graded here.
Tests used:
[1] = molecular target: androgen receptor (AR) (human (endogenous in LNCaP and other prostate cancer cell lines)) (UniProt P10275); assay: co-IP; endogenous AR immunoprecipitated with an antibody and protein G Dynabeads from lysates of prostate cancer cells; washes with 300 mM NaCl; immunoblot
[2] = molecular target: androgen receptor (AR) (human (endogenous in LNCaP and other prostate cancer cell lines)) (UniProt P10275); assay: SEC; nuclear lysate of LNCaP cells on a Superose 6 10/300 GL column, FPLC buffer (20 mM Tris-HCl pH 7.9, 0.1 M KCl, 5 mM MgCl2, 10% glycerol); fractions blotted

Protein sequences, listed by entry. Tags and fused reporters are not part of them.
UniProt P10275: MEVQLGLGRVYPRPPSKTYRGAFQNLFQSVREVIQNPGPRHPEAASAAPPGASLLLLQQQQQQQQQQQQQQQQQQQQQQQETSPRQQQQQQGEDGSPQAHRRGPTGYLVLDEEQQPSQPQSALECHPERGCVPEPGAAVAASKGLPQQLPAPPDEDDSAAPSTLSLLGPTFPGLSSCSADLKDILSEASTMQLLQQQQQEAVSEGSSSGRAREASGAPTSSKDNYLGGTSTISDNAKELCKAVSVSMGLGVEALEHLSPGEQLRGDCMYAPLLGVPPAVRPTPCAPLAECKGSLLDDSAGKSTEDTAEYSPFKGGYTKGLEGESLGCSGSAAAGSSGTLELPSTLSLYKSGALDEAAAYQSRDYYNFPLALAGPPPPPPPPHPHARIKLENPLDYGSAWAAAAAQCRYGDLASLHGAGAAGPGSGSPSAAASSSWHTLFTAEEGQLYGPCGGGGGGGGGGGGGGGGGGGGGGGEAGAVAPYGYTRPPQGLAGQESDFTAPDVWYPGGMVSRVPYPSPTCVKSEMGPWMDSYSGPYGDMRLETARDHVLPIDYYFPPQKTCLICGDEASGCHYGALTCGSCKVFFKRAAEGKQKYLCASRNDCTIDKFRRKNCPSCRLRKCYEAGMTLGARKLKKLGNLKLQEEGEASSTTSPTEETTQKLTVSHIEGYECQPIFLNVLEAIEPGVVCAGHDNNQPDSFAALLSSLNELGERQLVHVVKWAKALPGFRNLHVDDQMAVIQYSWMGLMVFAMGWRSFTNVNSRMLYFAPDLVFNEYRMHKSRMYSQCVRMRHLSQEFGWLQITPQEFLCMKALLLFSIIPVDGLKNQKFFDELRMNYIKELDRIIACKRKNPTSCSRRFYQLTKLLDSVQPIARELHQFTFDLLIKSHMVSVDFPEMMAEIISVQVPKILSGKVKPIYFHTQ
UniProt O96028: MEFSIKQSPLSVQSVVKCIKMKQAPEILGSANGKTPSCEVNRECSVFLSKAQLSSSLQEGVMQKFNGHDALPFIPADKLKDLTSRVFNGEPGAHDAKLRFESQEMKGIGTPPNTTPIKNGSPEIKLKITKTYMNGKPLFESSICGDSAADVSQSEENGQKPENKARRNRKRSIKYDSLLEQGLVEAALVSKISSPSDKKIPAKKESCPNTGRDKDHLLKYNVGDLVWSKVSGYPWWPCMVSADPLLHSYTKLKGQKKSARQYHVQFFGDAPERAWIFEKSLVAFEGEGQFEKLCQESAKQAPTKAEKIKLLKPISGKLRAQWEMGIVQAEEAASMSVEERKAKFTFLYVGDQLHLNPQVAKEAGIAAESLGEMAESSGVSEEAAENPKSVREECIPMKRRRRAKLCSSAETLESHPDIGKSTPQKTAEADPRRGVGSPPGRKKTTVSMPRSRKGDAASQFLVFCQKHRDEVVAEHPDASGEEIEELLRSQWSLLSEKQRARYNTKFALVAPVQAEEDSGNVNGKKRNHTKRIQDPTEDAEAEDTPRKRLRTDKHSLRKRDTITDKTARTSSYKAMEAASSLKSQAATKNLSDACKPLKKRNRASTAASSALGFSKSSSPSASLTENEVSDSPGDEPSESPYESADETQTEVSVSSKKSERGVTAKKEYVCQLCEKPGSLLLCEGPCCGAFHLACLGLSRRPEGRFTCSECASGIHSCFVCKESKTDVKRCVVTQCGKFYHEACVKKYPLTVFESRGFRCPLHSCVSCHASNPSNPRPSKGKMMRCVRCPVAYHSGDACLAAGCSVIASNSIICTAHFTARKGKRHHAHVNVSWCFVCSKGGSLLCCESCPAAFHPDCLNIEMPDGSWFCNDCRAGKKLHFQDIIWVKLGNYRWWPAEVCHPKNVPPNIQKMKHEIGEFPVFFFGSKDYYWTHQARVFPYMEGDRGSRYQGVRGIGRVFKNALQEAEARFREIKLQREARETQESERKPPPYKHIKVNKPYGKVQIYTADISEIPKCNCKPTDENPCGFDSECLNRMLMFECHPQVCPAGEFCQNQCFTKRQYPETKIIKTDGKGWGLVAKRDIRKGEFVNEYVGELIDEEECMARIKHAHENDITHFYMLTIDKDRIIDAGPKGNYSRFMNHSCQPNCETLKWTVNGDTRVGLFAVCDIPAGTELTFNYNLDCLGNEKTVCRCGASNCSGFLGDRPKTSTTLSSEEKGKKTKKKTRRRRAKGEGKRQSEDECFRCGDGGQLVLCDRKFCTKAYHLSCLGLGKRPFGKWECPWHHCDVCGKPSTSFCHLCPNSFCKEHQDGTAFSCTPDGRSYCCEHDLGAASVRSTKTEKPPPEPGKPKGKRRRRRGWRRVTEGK

In the case of “Nuclear Receptor Binding SET Domain Protein 2 (NSD2) (from UniProt O96028 1-1365)”, the binding [1] is reported as “binds” and the binding [2] is reported as “binds”.
